Experiment [1] has as its target AtFBW2 (Arabidopsis TaFBA1 homologous protein), yeast two-hybrid fusion (Arabidopsis). Put plainly: two-hybrid; pGBKT7 and pGADT7 fusions cotransformed into yeast strain Y2H Gold; growth on SD-Leu-Trp, SD-Leu-Trp-His and SD-adenine-His-Leu-Trp at 30°C for 3 to 5 days.
A further experiment concerns the target YFP^C-TaFBA1 (wheat). The experiment in a line: split reporter; BiFC: YFP N-terminal and YFP C-terminal fusions co-expressed in N. benthamiana leaves by Agrobacterium infiltration; YFP fluorescence by microscopy.
For the next experiment, the target named is TaFBA1-LUC^N (wheat). The experiment in a line: split reporter; LCI assay: LUC N-terminal and LUC C-terminal fusions co-expressed in N. benthamiana leaves by Agrobacterium infiltration; signal read with an imaging system.

The text below walks through data of PMC6795708.

No constants are given. Whether binding was seen depends on the method and setting. Binding can be weak; no strength is given. Where a sequence is shown, tags or fusion partners need not be part of it. For some of these results: Binding seen in cells or lysates may run through a third protein.

B1: ABI5 (ABA response protein), yeast two-hybrid fusion (protein, UniProt Q9SJN0 1-442)
chain: MVTRETKLTSEREVESSMAQARHNGGGGGENHPFTSLGRQSSIYSLTLDEFQHALCENGKNFGSMNMDEFLVSIWNAEENNNNQQQAAAAAGSHSVPANHNGFNNNNNNGGEGGVGVFSGGSRGNEDANNKRGIANESSLPRQGSLTLPAPLCRKTVDEVWSEIHRGGGSGNGGDSNGRSSSSNGQNNAQNGGETAARQPTFGEMTLEDFLVKAGVVREHPTNPKPNPNPNQNQNPSSVIPAAAQQQLYGVFQGTGDPSFPGQAMGVGDPSGYAKRTGGGGYQQAPPVQAGVCYGGGVGFGAGGQQMGMVGPLSPVSSDGLGHGQVDNIGGQYGVDMGGLRGRKRVVDGPVEKVVERRQRRMIKNRESAARSRARKQAYTVELEAELNQLKEENAQLKHALAELERKRKQQYFESLKSRAQPKLPKSNGRLRTLMRNPSCPL
B1: the binding entry in experiment [1] is listed as “no binding”.

B2: YFP^N-RCAR1 (protein, UniProt Q84MC7 1-187)
chain: MMDGVEGGTAMYGGLETVQYVRTHHQHLCRENQCTSALVKHIKAPLHLVWSLVRRFDQPQKYKPFVSRCTVIGDPEIGSLREVNVKSGLPATTSTERLELLDDEEHILGIKIIGGDHRLKNYSSILTVHPEIIEGRAGTMVIESFVVDVPQGNTKDETCYFVEALIRCNLKSLADVSERLASQDITQ
For B2, the binding entry with YFP^C-TaFBA1 (wheat) is “binds”.

B3: LUC^C-RCAR1 (protein, UniProt Q84MC7 1-187)
chain: MMDGVEGGTAMYGGLETVQYVRTHHQHLCRENQCTSALVKHIKAPLHLVWSLVRRFDQPQKYKPFVSRCTVIGDPEIGSLREVNVKSGLPATTSTERLELLDDEEHILGIKIIGGDHRLKNYSSILTVHPEIIEGRAGTMVIESFVVDVPQGNTKDETCYFVEALIRCNLKSLADVSERLASQDITQ
B3: the binding result in the experiment with TaFBA1-LUC^N (wheat) is “binds”.

B4: RCAR1 (an ABA receptor), yeast two-hybrid fusion (protein, UniProt Q84MC7 1-187)
chain: MMDGVEGGTAMYGGLETVQYVRTHHQHLCRENQCTSALVKHIKAPLHLVWSLVRRFDQPQKYKPFVSRCTVIGDPEIGSLREVNVKSGLPATTSTERLELLDDEEHILGIKIIGGDHRLKNYSSILTVHPEIIEGRAGTMVIESFVVDVPQGNTKDETCYFVEALIRCNLKSLADVSERLASQDITQ
In the case of B4, in experiment [1], the binding entry was “binds”.
